# Assay results as given in publication doi:10.1101/2025.05.13.653872.
# Amino acid sequences for entries named in this document (tags omitted). A change or cut given only in a name is not applied to a line headed by its entry.
# UniProt Q9I040: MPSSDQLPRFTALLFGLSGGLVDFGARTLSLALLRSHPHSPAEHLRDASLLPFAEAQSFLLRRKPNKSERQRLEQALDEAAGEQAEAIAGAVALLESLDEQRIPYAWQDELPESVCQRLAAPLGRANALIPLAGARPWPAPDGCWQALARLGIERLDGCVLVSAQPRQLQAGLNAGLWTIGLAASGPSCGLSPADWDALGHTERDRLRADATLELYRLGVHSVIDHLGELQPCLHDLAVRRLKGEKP
# B1: T18-PqsD, bacterial two-hybrid fusion (protein, UniProt P20582 1-337)
# chain: MGNPILAGLGFSLPKRQVSNHDLVGRINTSDEFIVERTGVRTRYHVEPEQAVSALMVPAARQAIEAAGLLPEDIDLLLVNTLSPDHHDPSQACLIQPLLGLRHIPVLDIRAQCSGLLYGLQMARGQILAGLARHVLVVCGEVLSKRMDCSDRGRNLSILLGDGAGAVVVSAGESLEDGLLDLRLGADGNYFDLLMTAAPGSASPTFLDENVLREGGGEFLMRGRPMFEHASQTLVRIAGEMLAAHELTLDDIDHVICHQPNLRILDAVQEQLGIPQHKFAVTVDRLGNMASASTPVTLAMFWPDIQPGQRVLVLTYGSGATWGAALYRKPEEVNRPC
# B2: T18-PhnA, bacterial two-hybrid fusion (protein, UniProt P09785 1-530)
# chain: MGARRWLVSGVGYRLEESLEYRTLVPEALSIWRMAGANRMLFDCFDVDSKAARRSVAILSSCLRIECWGRDVVLRALNSNGRALLAPLSEDCPAQVTCLRDGDTLHWRFPQEESHADEWRRLHGLSSLEALRRVLGTLGDAEGPVLLGGLFSFDLAEQFEPLPAPAEPARHCPDYLFLVPELLLDIDHLARRTSLQAFVHDPAGHDRLAASLRQCADEFHGAVEEASESPVAGVRAGNYQVDLDDASFARQVERLQAHVRAGDVFQIVPSRSFSMPCADPWRAYRQLCLRNPSPYRFFLDAGDFCLFGASPESALKYDAESREVELYPIAGTRPRGRDARGAIDAELDNRLEAELRLDAKEIAEHMMLVDLARNDLARVCRSGTRQVRDMLKVDRYSHVMHLVSRVAGELHGELDALHAYRACLNMGTLVGAPKVRAMQLLRQYEDGYRGSYGGAIGILDSAGNLDTSIVIRSAEVREGIARVRAGAGVVLDSDPRLEAEETRNKALAVLTAVAAAERERGERDAHHAVG
# B3: T18-PA3518, bacterial two-hybrid fusion (protein, UniProt Q9HY91 1-328)
# chain: MNTRNFSLPQLQNLPIEEARIVADALAVHATSRQIDSAASKLAALAEAGLKGDRQAYAAYQQLLYVLSLSDDVATAQTRRWLARAIYRVEERFMPAADLSRALSEEDFQKRLEQEIAAQSRERHPMSQYVFSGSASRAQLQVFLRHQWFRTFRLYRDAADLLVNLTDVDEAAALARYLYGELGEEDEKGSHPRLLAKLLEAIGLEADFQAVSTMPEEIAYLNNRARAFRHAEVGWGLAVFYITELVVPGNHEKLYRALLQAGLSEDQAEYYKVHISLVPPRAKREWQLIARRIPDVQFQNAFLTSLSQHFRVERAYYDAIWEEMQSVK
# Molecular target: T25-PcrP, bacterial two-hybrid fusion (P. aeruginosa PAO1) (UniProt Q9I040)
# Experiment: two-hybrid; bacterial two-hybrid (BACTH) in E. coli BTH101, pcrP in pKT25 and partners in pUT18C, 0.5 mM IPTG, 30°C; blue/white colonies on X-gal and β-galactosidase activity (Miller units)
row,Binder,binding
1,B1,no binding
2,B2,no binding
3,B3,binds

# No constants are given. Whether binding was seen depends on the method and setting. Binding can be weak; no strength is given. Sequences can lack the tags named with a protein.
